According to PubChem BioAssay AID330 (DTP/NCI, 2004):
The list shows only some results of the screen, not a fair sample: it is rich in T/C values a quarter to a half above the control, in often repeated tests (any T/C) and in doses without a T/C. Further doses and runs are listed elsewhere. T/C gives the treated animals as a percentage of the vehicle group. Some doses have a count of surviving animals in place of a T/C: the source files T/C as zero there, which appears to mark a toxic dose or a test without result, not a measured value. Some survivor counts are full or nearly so, which does not show that the dose was tolerated: the source hardly ever lists a survival T/C far under the control, and the zero likely stands for such cases as well. Counts of survivors are from the toxicity check (mostly the fifth day) where no day follows; animals may have died later. Schedule codes are those of the source, taken here to give the interval after Q, in days (D) or hours (H), and the number of doses after X. Some doses were run more than once; the results are listed from low to high. For survival time, this PubChem deposit counts one and a half times the control or more as active, and values a quarter to a half above the control carry no call in these data; other NCI protocols may use other cut-offs. Some T/C values carry the count of animals alive at the toxicity check (mostly the fifth day); where none is given, no animal had died by that day.

Test system: P388 leukemia ip, CD2F1 mice, survival T/C
Assay: NCI In Vivo Anticancer Drug Screen. Data for tumor model P388 Leukemia (intraperitoneal) in CD2F1 (CDF1) mice
Conditions: T/C endpoint: median survival time, higher T/C = longer survival
[1] = dose: 50.0 mg/kg/injection, schedule: Q01DX009 (ip), vehicle: saline with Tween-80
[2] = dose: 100.0 mg/kg/injection, schedule: Q01DX009 (ip), vehicle: saline with Tween-80
[3] = dose: 200.0 mg/kg/injection, schedule: Q01DX009 (ip), vehicle: saline with Tween-80
[4] = dose: 50.0 mg/kg/injection, schedule: Q01DX009 (ip), vehicle: Klucel (hydroxypropylcellulose) (HPC)
[5] = dose: 100.0 mg/kg/injection, schedule: Q01DX009 (ip), vehicle: Klucel (hydroxypropylcellulose) (HPC)
[6] = dose: 200.0 mg/kg/injection, schedule: Q01DX009 (ip), vehicle: Klucel (hydroxypropylcellulose) (HPC)
[7] = dose: 25.0 mg/kg/injection, schedule: Q01DX005 (ip), vehicle: saline with Tween-80
[8] = dose: 50.0 mg/kg/injection, schedule: Q01DX005 (ip), vehicle: saline with Tween-80
[9] = dose: 100.0 mg/kg/injection, schedule: Q01DX005 (ip), vehicle: saline with Tween-80
[10] = dose: 200.0 mg/kg/injection, schedule: Q01DX005 (ip), vehicle: saline with Tween-80
[11] = dose: 100.0 mg/kg/injection, schedule: Q01DX005 (ip), vehicle: Klucel (hydroxypropylcellulose) (HPC)
[12] = dose: 240.0 mg/kg/injection, schedule: Q01DX005 (ip), vehicle: saline with Tween-80
[13] = dose: 60.0 mg/kg/injection, schedule: Q01DX005 (ip), vehicle: saline with Tween-80
[14] = dose: 120.0 mg/kg/injection, schedule: Q01DX005 (ip), vehicle: saline with Tween-80

Question: What does the source list for `COc1cccc2c1C(=O)c1c(O)c3c(c(O)c1C2=O)C[C@@](O)(/C(C)=N\NC(=O)CO)C[C@@H]3OC1CC(N)C(O)C(C)O1` (stereo partly specified)?
Answer: T/C (dose: 0.25 mg/kg/injection, schedule: Q01DX009 (ip), vehicle: water): 126 % of control; T/C (dose: 0.44 mg/kg/injection, schedule: Q04DX003 (ip), vehicle: saline): 127 % of control; T/C (dose: 0.5 mg/kg/injection, schedule: Q01DX009 (ip), vehicle: water): 136 % of control; T/C (dose: 0.66 mg/kg/injection, schedule: Q01DX009 (ip), vehicle: saline): 139 % of control; T/C (dose: 0.66 mg/kg/injection, schedule: Q04DX003 (ip), vehicle: saline): 140 % of control; T/C (dose: 0.88 mg/kg/injection, schedule: Q04DX003 (ip), vehicle: saline): 145 % of control; T/C (dose: 1.0 mg/kg/injection, schedule: Q01DX009 (ip), vehicle: water): 144 % of control; T/C (dose: 2.5 mg/kg/injection, schedule: Q04DX003 (ip), vehicle: water): 126 % of control; T/C (dose: 5.0 mg/kg/injection, schedule: Q04DX003 (ip), vehicle: water): 135 % of control; T/C (dose: 10.0 mg/kg/injection, schedule: Q04DX003 (ip), vehicle: water, evaluated on day 30): 138 % of control; T/C (dose: 10.0 mg/kg/injection, schedule: Q04DX003 (ip), vehicle: water, evaluated on day 45): 132 % of control; survivor count (dose: 12.5 mg/kg/injection, schedule: Q01DX009 (ip), vehicle: water): 3 of 6; T/C (dose: 20.0 mg/kg/injection, schedule: Q04DX003 (ip), vehicle: water, evaluated on day 30): 143 % of control; T/C (dose: 20.0 mg/kg/injection, schedule: Q04DX003 (ip), vehicle: water, evaluated on day 45): 125 % of control; survivor count (dose: 25.0 mg/kg/injection, schedule: Q01DX009 (ip), vehicle: water): 1 of 6; T/C (dose: 40.0 mg/kg/injection, schedule: Q04DX003 (ip), vehicle: water): 135 % of control; T/C (dose: 88.0 micrograms/kg/injection, schedule: Q01DX009 (ip), vehicle: saline): 135 % of control; T/C (dose: 133.0 micrograms/kg/injection, schedule: Q01DX009 (ip), vehicle: saline): 133 % of control; T/C (dose: 200.0 micrograms/kg/injection, schedule: Q01DX009 (ip), vehicle: saline): 133 % of control; T/C (dose: 300.0 micrograms/kg/injection, schedule: Q01DX009 (ip), vehicle: saline): 146 % of control

Question: Which survivor count (dose: 400.0 mg/kg/injection, schedule: Q04DX003 (ip), vehicle: saline with Tween-80) does the source give for `CC(c1ccccc1)C1(C)NC(=O)NC1=O` (stereo unspecified) here?
Answer: 1 of 6

Question: Which T/C [1] does the source give for `CCN(CC)CCNc1ccc(C)c2sc3ccc(N)cc3c(=O)c12` here?
Answer: 138 % of control

Question: And the survivor count [2]?
Answer: 6 of 6

Question: What about the survivor count [3] of the same molecule?
Answer: 2 of 6

Question: `NC(=O)c1c[n+]([O-])ccc1[N+](=O)[O-]` was tested. Which T/C (dose: 25.0 mg/kg/injection, schedule: Q01DX009 (ip), vehicle: Klucel (hydroxypropylcellulose) (HPC)) did it give?
Answer: 129 % of control

Question: What about the T/C [4] of the same molecule?
Answer: 132 % of control

Question: And the survivor count [5]?
Answer: 1 of 6

Question: And the survivor count [6]?
Answer: 0 of 6

Question: Which survivor count [3] does the source give for `Cc1cccc(OCC(O)CNC(C)(C)C)c1C` (stereo unspecified) here?
Answer: 0 of 6

Question: How did the survivor count [4] turn out when `O=C1C2(Cl)C3(Cl)C4(Cl)C(Cl)(Cl)C5(Cl)[C@]3(Cl)C1(Cl)[C@]5(Cl)C24Cl` (stereo partly specified) was run?
Answer: 4 of 6

Question: What about the survivor count [1] of the same molecule?
Answer: 3 of 6 and 6 of 6

Question: What about the survivor count [5] of the same molecule?
Answer: 5 of 6

Question: What about the survivor count [2] of the same molecule?
Answer: 0 of 6

Question: What about the survivor count [6] of the same molecule?
Answer: 1 of 6

Question: And the survivor count [3]?
Answer: 0 of 6

Question: And the survivor count (dose: 400.0 mg/kg/injection, schedule: Q01DX009 (ip), vehicle: Klucel (hydroxypropylcellulose) (HPC))?
Answer: 2 of 6

Question: What does the source list for `C=CCOC(=O)C12CCC(C)(C)CC1C1=CCC3C4(C)CCC(O)C(C)(CO)C4CCC3(C)C1(C)CC2` (stereo unspecified)?
Answer: survivor count [7]: 6 of 6; survivor count [8]: 6 of 6; survivor count [9]: 6 of 6; survivor count [10]: 6 of 6

Question: How did the T/C (dose: 6.0 mg/kg/injection, schedule: Q01DX009 (ip), vehicle: saline) turn out when `CCCCCc1cc(/C=C2/N=C(c3ccc[nH]3)C=C2OC)[nH]c1C` was run?
Answer: 125 % of control

Question: What about the survivor count (dose: 12.0 mg/kg/injection, schedule: Q01DX009 (ip), vehicle: saline) of the same molecule?
Answer: 6 of 6

Question: What about the survivor count (dose: 24.0 mg/kg/injection, schedule: Q01DX009 (ip), vehicle: saline) of the same molecule?
Answer: 2 of 6

Question: How did the survivor count (dose: 200.0 mg/kg/injection, schedule: Q04DX002 (ip), vehicle: saline) turn out when `O=C(N1CCC(CCN2CCCC2)CC1)C(O)(c1ccccc1)c1ccccc1` was run?
Answer: 1 of 6

Question: What about the survivor count (dose: 400.0 mg/kg/injection, schedule: Q04DX002 (ip), vehicle: saline) of the same molecule?
Answer: 0 of 6

Question: `Cc1ccc(S(=O)(=O)N(C=O)c2ccccc2)cc1` was tested. Which survivor count [3] did it give?
Answer: 5 of 6

Question: What does the source list for `CC(/C=C/c1ccccc1)=N\NC(=O)c1ccccc1`?
Answer: T/C (dose: 50.0 mg/kg/injection, schedule: Q01DX005 (ip), vehicle: Klucel (hydroxypropylcellulose) (HPC)): 100, 103, 108, 120 % of control; T/C [11]: 127 % of control [5 of 6 alive]; survivor count [11]: 5 of 6; survivor count (dose: 200.0 mg/kg/injection, schedule: Q01DX005 (ip), vehicle: Klucel (hydroxypropylcellulose) (HPC)): 0 of 6 and 3 of 6

Question: For `COc1nc2[nH]c(C)cc(=O)c2c2ccccc12`, which survivor count [12] is on record?
Answer: 6 of 6

Question: Which survivor count (dose: 400.0 mg/kg/injection, schedule: Q04DX003 (ip), vehicle: saline) does the source give for `Cc1cc(Cl)ccc1N1C(=O)[N+](C)(C)N=C1[O-]` here?
Answer: 4 of 6

Question: With `COc1cc(NCC(C)(O)CN2CCCCC2)c2ncccc2c1` (stereo unspecified) as the molecule, how does the survivor count (dose: 100.0 mg/kg/injection, schedule: Q01DX005 (ip), vehicle: saline) read?
Answer: 0 of 5

Question: What about the survivor count (dose: 200.0 mg/kg/injection, schedule: Q01DX005 (ip), vehicle: saline) of the same molecule?
Answer: 0 of 5

Question: How did the survivor count [10] turn out when `NC(CS(=O)Cc1ccccc1)C(=O)O` (stereo unspecified) was run?
Answer: 1 of 5

Question: How did the survivor count [13] turn out when `N/N=C1\c2ccccc2-c2cccc(O)c21` was run?
Answer: 6 of 6

Question: What about the survivor count [14] of the same molecule?
Answer: 6 of 6

Question: And the survivor count [12]?
Answer: 6 of 6

Question: With `CC(=O)/C(=C\c1ccccc1F)C(=O)CCN(C)C` as the molecule, how does the survivor count (dose: 240.0 mg/kg/injection, schedule: Q01DX005 (ip), vehicle: saline) read?
Answer: 3 of 6

Question: `O=C(NNc1ncccn1)c1ccc(C(=O)NNc2ncccn2)cc1` was tested. Which survivor count (dose: 30.0 mg/kg/injection, schedule: Q01DX005 (ip), vehicle: saline with Tween-80) did it give?
Answer: 6 of 6

Question: What about the survivor count [13] of the same molecule?
Answer: 6 of 6

Question: What about the survivor count [14] of the same molecule?
Answer: 6 of 6

Question: And the survivor count [12]?
Answer: 6 of 6

Question: How did the survivor count (dose: 400.0 mg/kg/injection, schedule: Q04DX002 (ip), vehicle: Klucel (hydroxypropylcellulose) (HPC)) turn out when `CC1(C)OI(O)c2ccccc21` was run?
Answer: 0 of 6

Question: How did the survivor count (dose: 6.25 mg/kg/injection, schedule: Q01DX005 (ip), vehicle: saline with Tween-80) turn out when `C[N+]1(Cc2ccc(C(N)=O)cc2)CCC(CCC2CC[N+](C)(Cc3ccc(C(N)=O)cc3)CC2)CC1` (stereo unspecified) was run?
Answer: 0 of 5

Question: What about the survivor count (dose: 12.5 mg/kg/injection, schedule: Q01DX005 (ip), vehicle: saline with Tween-80) of the same molecule?
Answer: 0 of 5

Question: And the survivor count [7]?
Answer: 0 of 5

Question: What about the survivor count [8] of the same molecule?
Answer: 0 of 5

Question: What about the survivor count [9] of the same molecule?
Answer: 0 of 5

Question: And the survivor count [10]?
Answer: 0 of 5

Question: Which survivor count [10] does the source give for `CC(C)C(NC(=O)CN(C)C(=O)OCc1ccccc1)C(=O)O` (stereo unspecified) here?
Answer: 3 of 6
